Measurements as given in the supplement of paper PMC10849652.
The list shows a part of the results.

Chains of the proteins cited; added tags and fusions are not shown. Lines headed by an entry give the natural chain unless they say otherwise; changes in a name come on top.
UniProt Q13625: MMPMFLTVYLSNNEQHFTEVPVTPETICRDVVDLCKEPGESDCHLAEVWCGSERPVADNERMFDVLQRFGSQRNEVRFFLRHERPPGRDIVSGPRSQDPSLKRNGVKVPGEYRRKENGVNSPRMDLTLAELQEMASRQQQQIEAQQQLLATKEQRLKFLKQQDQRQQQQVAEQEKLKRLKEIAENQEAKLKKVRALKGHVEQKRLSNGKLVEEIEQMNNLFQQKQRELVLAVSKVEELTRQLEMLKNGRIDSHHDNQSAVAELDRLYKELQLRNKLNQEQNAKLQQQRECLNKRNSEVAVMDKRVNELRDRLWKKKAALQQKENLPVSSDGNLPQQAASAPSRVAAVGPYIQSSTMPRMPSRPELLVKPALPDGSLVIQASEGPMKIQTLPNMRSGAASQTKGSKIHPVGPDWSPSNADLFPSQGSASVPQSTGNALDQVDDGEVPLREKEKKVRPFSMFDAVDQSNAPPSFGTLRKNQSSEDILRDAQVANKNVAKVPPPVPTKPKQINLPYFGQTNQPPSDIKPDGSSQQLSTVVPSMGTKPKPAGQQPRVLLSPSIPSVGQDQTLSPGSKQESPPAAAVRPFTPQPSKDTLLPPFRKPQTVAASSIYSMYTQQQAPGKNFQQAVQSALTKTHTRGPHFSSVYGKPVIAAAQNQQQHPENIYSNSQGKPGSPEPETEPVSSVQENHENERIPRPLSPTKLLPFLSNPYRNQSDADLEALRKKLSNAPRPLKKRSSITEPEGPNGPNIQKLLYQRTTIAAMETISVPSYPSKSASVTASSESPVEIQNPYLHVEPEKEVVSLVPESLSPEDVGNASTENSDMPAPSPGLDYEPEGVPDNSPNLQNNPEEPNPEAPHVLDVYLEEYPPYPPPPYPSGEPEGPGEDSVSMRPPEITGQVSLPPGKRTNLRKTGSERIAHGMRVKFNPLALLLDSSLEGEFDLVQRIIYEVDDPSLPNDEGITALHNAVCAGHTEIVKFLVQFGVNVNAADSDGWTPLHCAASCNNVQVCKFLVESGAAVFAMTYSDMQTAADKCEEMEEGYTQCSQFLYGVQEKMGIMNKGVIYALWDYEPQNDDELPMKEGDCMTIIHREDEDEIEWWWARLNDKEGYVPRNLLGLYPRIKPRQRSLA
UniProt Q15643: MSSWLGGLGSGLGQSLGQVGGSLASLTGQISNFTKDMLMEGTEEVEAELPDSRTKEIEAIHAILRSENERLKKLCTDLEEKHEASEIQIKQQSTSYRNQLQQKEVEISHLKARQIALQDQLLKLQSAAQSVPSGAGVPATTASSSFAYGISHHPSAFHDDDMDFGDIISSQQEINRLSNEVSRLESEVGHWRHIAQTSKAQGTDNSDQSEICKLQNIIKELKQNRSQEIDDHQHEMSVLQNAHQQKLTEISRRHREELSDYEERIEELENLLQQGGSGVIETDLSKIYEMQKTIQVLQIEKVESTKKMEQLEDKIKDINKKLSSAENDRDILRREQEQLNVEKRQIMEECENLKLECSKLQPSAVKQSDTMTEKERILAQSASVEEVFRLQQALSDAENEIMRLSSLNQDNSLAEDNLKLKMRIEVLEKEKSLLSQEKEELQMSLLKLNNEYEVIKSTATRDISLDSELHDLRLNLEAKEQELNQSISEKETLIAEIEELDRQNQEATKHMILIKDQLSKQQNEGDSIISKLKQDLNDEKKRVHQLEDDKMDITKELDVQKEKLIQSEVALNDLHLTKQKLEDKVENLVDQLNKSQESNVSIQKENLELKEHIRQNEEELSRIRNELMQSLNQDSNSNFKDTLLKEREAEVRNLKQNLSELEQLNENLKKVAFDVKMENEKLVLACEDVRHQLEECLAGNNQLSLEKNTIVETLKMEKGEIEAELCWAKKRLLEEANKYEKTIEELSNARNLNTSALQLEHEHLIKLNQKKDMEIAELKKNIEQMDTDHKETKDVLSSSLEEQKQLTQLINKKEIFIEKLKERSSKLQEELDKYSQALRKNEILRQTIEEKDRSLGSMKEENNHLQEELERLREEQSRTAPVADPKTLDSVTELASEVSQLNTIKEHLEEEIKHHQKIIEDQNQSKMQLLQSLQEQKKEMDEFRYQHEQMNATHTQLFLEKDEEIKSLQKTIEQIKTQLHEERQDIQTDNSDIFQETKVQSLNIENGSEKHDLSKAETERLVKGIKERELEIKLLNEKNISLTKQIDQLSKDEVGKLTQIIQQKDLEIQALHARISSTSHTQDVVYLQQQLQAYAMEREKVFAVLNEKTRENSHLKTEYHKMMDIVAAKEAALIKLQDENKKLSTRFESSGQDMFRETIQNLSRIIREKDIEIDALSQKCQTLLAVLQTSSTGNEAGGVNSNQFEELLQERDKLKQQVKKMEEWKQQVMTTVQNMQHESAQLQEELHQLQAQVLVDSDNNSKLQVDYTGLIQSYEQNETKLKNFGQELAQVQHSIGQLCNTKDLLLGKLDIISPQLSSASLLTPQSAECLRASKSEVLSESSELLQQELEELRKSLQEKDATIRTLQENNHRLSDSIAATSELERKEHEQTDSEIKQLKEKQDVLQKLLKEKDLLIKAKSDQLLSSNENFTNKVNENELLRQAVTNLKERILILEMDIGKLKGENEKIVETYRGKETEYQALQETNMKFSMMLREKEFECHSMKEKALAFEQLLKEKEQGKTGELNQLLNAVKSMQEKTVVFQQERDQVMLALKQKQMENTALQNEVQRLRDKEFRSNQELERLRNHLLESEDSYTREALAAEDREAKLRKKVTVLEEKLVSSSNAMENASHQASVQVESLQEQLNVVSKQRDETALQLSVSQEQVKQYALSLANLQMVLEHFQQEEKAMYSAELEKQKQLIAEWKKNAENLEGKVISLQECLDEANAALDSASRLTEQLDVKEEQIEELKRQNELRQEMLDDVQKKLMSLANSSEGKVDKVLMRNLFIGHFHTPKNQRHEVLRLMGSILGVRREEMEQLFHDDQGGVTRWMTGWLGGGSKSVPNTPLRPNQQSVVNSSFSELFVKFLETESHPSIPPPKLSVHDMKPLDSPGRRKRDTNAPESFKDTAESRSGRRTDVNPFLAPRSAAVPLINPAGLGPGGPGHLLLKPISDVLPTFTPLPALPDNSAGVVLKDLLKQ
UniProt O95900: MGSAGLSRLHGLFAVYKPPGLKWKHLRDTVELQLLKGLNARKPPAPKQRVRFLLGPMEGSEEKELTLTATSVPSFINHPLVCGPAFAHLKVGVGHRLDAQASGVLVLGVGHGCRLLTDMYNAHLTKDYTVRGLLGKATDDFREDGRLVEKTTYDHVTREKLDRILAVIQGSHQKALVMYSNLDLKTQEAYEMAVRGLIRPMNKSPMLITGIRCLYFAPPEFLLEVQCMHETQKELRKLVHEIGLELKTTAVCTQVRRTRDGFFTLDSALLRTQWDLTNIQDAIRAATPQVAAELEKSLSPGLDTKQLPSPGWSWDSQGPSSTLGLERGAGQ
UniProt Q6ZVM7: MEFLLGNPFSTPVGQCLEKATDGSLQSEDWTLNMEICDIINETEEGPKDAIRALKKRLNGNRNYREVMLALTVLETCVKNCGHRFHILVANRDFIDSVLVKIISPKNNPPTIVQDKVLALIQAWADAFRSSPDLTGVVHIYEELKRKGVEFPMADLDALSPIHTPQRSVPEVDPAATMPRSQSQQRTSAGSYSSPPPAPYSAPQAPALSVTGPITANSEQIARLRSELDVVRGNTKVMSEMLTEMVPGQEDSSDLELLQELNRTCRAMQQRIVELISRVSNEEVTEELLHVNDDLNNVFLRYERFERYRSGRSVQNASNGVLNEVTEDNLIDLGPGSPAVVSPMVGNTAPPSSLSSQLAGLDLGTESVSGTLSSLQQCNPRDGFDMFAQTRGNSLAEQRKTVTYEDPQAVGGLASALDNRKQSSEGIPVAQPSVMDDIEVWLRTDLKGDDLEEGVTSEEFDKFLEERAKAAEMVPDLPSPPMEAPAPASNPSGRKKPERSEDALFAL
UniProt Q9BSV6: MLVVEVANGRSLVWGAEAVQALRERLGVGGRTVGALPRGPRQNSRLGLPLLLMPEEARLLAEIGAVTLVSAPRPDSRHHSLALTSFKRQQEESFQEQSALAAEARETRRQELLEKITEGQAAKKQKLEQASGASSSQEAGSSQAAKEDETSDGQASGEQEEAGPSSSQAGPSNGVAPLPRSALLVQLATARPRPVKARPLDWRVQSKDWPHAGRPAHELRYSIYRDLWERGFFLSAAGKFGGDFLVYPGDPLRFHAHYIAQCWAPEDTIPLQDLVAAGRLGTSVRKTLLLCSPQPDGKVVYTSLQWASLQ
UniProt Q9H4I3: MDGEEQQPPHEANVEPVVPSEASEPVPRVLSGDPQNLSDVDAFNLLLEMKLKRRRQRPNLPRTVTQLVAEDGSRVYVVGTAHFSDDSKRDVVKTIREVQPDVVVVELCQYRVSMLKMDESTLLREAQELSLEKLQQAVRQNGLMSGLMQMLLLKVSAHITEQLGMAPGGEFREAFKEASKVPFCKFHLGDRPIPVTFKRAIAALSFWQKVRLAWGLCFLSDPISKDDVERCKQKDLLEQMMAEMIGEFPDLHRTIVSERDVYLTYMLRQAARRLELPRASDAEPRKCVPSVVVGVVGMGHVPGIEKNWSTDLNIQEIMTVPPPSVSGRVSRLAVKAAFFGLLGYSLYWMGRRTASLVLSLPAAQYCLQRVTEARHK
UniProt Q15642: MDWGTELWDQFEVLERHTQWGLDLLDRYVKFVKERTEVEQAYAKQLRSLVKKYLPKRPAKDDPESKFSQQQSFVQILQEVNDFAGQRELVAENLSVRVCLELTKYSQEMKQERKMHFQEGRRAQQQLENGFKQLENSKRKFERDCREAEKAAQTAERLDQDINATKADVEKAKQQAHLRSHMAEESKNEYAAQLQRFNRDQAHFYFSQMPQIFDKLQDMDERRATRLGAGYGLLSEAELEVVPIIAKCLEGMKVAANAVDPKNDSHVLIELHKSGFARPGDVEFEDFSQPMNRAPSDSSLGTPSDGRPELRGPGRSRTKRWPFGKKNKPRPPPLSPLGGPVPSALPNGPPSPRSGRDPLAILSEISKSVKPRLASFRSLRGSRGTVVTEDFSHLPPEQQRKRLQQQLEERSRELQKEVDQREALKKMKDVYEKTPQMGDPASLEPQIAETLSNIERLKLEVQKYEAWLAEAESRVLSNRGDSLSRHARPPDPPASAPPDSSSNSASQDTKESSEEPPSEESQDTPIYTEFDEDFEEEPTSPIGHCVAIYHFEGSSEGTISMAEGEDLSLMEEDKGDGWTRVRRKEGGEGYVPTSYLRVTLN
UniProt Q8NCE0: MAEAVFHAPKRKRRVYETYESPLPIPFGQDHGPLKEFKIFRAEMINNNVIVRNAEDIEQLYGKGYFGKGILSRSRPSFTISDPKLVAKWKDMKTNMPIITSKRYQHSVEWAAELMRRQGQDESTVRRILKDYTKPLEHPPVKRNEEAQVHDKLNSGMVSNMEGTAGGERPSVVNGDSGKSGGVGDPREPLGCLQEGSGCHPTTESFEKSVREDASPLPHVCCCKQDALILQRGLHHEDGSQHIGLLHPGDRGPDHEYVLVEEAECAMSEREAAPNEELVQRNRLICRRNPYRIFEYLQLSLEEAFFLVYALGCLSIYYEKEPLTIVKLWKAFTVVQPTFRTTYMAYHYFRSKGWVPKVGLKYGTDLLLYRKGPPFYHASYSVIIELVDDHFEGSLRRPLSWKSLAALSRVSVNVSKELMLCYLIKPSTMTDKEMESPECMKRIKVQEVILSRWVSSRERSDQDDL
UniProt Q9P0U1: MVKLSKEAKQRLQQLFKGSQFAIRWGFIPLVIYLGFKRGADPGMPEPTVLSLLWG
UniProt Q86SZ2: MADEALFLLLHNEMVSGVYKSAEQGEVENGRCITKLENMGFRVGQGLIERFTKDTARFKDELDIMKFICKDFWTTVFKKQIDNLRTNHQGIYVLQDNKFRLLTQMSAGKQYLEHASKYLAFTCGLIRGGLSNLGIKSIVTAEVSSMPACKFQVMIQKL
UniProt Q629K1: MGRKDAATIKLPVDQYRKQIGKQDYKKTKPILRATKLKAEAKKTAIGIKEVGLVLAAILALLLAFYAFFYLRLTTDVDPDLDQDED
UniProt P36406: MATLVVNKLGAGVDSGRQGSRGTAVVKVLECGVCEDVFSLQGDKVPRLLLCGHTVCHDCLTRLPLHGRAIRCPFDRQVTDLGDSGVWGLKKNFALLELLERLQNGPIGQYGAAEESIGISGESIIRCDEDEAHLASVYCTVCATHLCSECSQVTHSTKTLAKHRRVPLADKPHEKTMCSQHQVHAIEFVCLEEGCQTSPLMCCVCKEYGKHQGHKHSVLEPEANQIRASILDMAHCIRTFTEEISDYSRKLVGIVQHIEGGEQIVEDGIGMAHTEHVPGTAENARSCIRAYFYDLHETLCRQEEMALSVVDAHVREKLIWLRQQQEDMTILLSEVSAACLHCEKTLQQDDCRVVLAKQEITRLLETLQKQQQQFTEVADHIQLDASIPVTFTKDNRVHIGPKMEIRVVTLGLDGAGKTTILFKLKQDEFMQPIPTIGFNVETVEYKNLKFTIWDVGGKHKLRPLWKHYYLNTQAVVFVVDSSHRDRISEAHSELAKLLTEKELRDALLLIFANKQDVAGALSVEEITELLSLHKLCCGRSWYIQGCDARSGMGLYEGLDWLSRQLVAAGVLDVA

What follows are targets tested with C[C@@H]1COCCN1C2=NC(=NC(=C2)C3(CC3)S(=O)(=O)C)C4=C5C=CNC5=CC=C4 (assay: log2 fold change, soluble protein after heating vs DMSO (PISA); higher = thermal stabilisation; K562 cells, 10 uM, 30 min; active = over 0.2 and 3.5 SD of the protein, either way, in both replicates (recomputed)).
In short: (§1)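 K562 cells (2×10^6 cells/mL) were treated with 10 μM compound for 30 min, and aliquots were heated for 3 min over 48°C-58°C. Pooled aliquots were extracted in PBS with 0.5% NP-40 at 4°C, and the supernatant after 21,000xg for 90 min was measured by TMTpro 16plex LC-MS/MS with channel sums equalised. Reported thermal stability, relative to control samples and from duplicates, is a log2 fold change.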

log2 fold change, inactive:
TP53BP2 isoform 3 (UniProt Q13625) -0.029, TRIP11 (UniProt Q15643) 0.034, TPP2 (UniProt Q5VZU9) -0.165, TPPP3 (UniProt Q9BW30) 0.065, TOM1 (UniProt O60784) -0.05, TPK1 (UniProt Q9H3S4) 0.075, TRUB2 (UniProt O95900) -0.026, TRIM4 (UniProt Q9C037) 0.037, TOM1L2 (UniProt Q6ZVM7) 0.118, TNRC6B (UniProt Q9UPQ9) -0.025, TRAF7 (UniProt Q6Q0C0) -0.082, TRPM7 (UniProt Q96QT4) -0.142, TRIM24 (UniProt O15164) 0.272, TRAPPC11 (UniProt Q7Z392) 0.051, TSEN34 (UniProt Q9BSV6) 0.073, TRPC4AP (UniProt Q8TEL6) -0.049, TP53BP1 isoform 2 (UniProt Q12888) -0.001, TNFRSF8 (UniProt P28908) 0.009, TRMT10C (UniProt Q7L0Y3) 0.109, TRIO (UniProt O75962) 0.233, TRABD (UniProt Q9H4I3) 0.097, TRIP10 isoform 2 (UniProt Q15642) -0.007, TSEN2 (UniProt Q8NCE0) 0.014, TRMT61A (UniProt Q96FX7) -0.201, TOMM7 (UniProt Q9P0U1) 0.027, TSC2 (UniProt P49815) -0.139, TRAPPC6B (UniProt Q86SZ2) 0.111, TRIQK (UniProt Q629K1) 0.072

Each target was assayed with C[C@H](C1=CC=C(C=C1)C(=O)NC2=C3C=CNC3=NC=C2)N in the same assay as above.
In short: as §1

log2 fold change, inactive:
TP53BP2 isoform 3 (UniProt Q13625) 0.092, TPP2 (UniProt Q5VZU9) 0.329, TPK1 (UniProt Q9H3S4) 0.077, TRIM4 (UniProt Q9C037) 0.061, TOM1L2 (UniProt Q6ZVM7) 0.087, TNRC6B (UniProt Q9UPQ9) 0.033, TRAF7 (UniProt Q6Q0C0) -0.025, TRIM23 (UniProt P36406) -0.122, TRPM7 (UniProt Q96QT4) 0.164, TRAPPC1 (UniProt Q9Y5R8) -0.045, TRAPPC11 (UniProt Q7Z392) 0.075, TSEN34 (UniProt Q9BSV6) 0.314, TP53BP1 isoform 2 (UniProt Q12888) 0.018, TNFRSF8 (UniProt P28908) -0.073, TRMT10C (UniProt Q7L0Y3) -0.013, TRABD (UniProt Q9H4I3) -0.062, TRIP10 isoform 2 (UniProt Q15642) 0.108, TSEN2 (UniProt Q8NCE0) 0, TRMT61A (UniProt Q96FX7) 0.168, TRIM44 (UniProt Q96DX7) -0.059, TSC2 (UniProt P49815) 0.218, TRAPPC6B (UniProt Q86SZ2) -0.069, TRIQK (UniProt Q629K1) 0.017
